From publication PMC3212559, “Large-Scale Protein-Protein Interaction Analysis in Arabidopsis Mesophyll Protoplasts by Split Firefly Luciferase Complementation” (PLoS ONE, 2011)
These are yes or no findings as the source states them, for the method shown. Binding seen in cells or lysates may run through a third protein. For part of these data: Where a sequence is shown, tags or fusion partners need not be part of it.

By UniProt entry, the sequences of proteins in these tests, tags left out.
UniProt P93830: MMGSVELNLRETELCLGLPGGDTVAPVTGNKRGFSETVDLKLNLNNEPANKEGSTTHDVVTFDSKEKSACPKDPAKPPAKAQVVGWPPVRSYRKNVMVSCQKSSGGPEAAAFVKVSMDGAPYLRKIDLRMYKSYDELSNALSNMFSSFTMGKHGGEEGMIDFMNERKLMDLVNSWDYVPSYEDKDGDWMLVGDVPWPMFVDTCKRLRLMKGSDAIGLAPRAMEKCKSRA

Columns and labels:
Test in all cases: split reporter; SFLC in living Arabidopsis mesophyll protoplasts: Aux/IAA-FLucN or MYB30-FLucN co-expressed with ARFCTD-FLucC or Aux/IAA-FLucC for 6 hr; 10 µg of each construct, 2×10^4 cells, 96-well plate, D-luciferin; relative activity standardised against ARF5CTD-FLucC + IAA28-FLucN
[1] = biological target: T1, IAA6-FLucC (Arabidopsis, UniProt Q38824 1-189)
T1 construct: Arabidopsis Aux/IAA protein IAA6; also called Aux/IAA-FLucC; source: Arabidopsis mesophyll protoplasts, transfected, in living cells; not shown: FLucC (firefly luciferase aa 394-550)
T1 sequence (looked up): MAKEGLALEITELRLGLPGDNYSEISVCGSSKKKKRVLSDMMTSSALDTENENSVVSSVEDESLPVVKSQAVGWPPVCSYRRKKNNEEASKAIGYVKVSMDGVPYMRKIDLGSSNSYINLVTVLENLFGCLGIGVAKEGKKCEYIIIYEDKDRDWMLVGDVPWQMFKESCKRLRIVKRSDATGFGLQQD

[2] = biological target: T2, IAA19-FLucC (Arabidopsis, UniProt O24409 1-197)
T2 construct: Arabidopsis Aux/IAA protein IAA19; also called Aux/IAA-FLucC; source: Arabidopsis mesophyll protoplasts, transfected, in living cells; not shown: FLucC (firefly luciferase aa 394-550)
T2 sequence (looked up): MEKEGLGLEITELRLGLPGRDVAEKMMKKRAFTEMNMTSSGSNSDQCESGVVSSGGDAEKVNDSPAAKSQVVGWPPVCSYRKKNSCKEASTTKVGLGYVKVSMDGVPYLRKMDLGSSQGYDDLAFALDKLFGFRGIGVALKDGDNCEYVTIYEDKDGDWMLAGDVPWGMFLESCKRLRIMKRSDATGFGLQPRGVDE

[3] = biological target: T3, IAA3-FLucC (Arabidopsis, UniProt Q38822 1-189)
T3 construct: Arabidopsis Aux/IAA protein IAA3; also called Aux/IAA-FLucC; source: Arabidopsis mesophyll protoplasts, transfected, in living cells; not shown: FLucC (firefly luciferase aa 394-550)
T3 sequence (looked up): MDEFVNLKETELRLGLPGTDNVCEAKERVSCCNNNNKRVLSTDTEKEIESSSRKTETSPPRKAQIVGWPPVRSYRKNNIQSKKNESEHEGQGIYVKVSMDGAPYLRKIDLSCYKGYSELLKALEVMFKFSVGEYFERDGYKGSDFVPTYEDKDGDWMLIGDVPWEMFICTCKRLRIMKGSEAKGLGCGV

[4] = biological target: T4, IAA1-FLucC (Arabidopsis, UniProt P49677 1-168)
T4 construct: Arabidopsis Aux/IAA protein IAA1; also called Aux/IAA-FLucC; source: Arabidopsis mesophyll protoplasts, transfected, in living cells; not shown: FLucC (firefly luciferase aa 394-550)
T4 sequence (looked up): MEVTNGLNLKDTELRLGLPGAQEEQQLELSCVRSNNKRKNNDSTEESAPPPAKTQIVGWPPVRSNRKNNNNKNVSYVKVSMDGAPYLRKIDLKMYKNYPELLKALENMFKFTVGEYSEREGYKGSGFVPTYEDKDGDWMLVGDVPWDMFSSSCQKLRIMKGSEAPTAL

[5] = biological target: T5, IAA9-FLucC (Arabidopsis, UniProt Q38827 1-338)
T5 construct: Arabidopsis Aux/IAA protein IAA9; also called Aux/IAA-FLucC; source: Arabidopsis mesophyll protoplasts, transfected, in living cells; not shown: FLucC (firefly luciferase aa 394-550)
T5 sequence (looked up): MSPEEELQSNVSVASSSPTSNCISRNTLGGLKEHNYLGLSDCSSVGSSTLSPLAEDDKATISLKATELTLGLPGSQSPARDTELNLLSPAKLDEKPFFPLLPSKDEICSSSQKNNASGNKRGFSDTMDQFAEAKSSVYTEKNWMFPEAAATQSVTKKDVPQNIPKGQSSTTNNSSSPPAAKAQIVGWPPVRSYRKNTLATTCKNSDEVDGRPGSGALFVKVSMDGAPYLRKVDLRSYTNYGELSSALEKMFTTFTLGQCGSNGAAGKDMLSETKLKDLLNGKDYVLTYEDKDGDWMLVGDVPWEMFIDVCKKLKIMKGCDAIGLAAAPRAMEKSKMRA

[6] = biological target: T6, IAA17-FLucC (Arabidopsis, UniProt P93830 1-229)
T6 construct: Arabidopsis Aux/IAA protein IAA17; also called Aux/IAA-FLucC; source: Arabidopsis mesophyll protoplasts, transfected, in living cells; not shown: FLucC (firefly luciferase aa 394-550)

B1: MYB30-FLucN (natural protein, UniProt Q9SCU7 1-323, looked up)
chain: MVRPPCCDKGGVKKGPWTPEEDIILVTYIQEHGPGNWRAVPTNTGLLRCSKSCRLRWTNYLRPGIKRGNFTEHEEKMIVHLQALLGNRWAAIASYLPQRTDNDIKNYWNTHLKKKLNKVNQDSHQELDRSSLSSSPSSSSANSNSNISRGQWERRLQTDIHLAKKALSEALSPAVAPIITSTVTTTSSSAESRRSTSSASGFLRTQETSTTYASSTENIAKLLKGWVKNSPKTQNSADQIASTEVKEVIKSDDGKECAGAFQSFSEFDHSYQQAGVSPDHETKPDITGCCSNQSQWSLFEKWLFEDSGGQIGDILLDENTNFF
notes: transcription factor MYB30, the unrelated protein used as negative control; source: Arabidopsis mesophyll protoplasts, transfected, in living cells; not shown: FLucN (firefly luciferase aa 1-398)
What does the source list for B1?
binding [1]: no binding (tested: relative luciferase activity below 0.1); binding [2]: no binding (tested: relative luciferase activity below 0.1); binding [3]: no binding (tested: relative luciferase activity below 0.1); binding [4]: no binding (tested: relative luciferase activity below 0.1); binding [5]: no binding (tested: relative luciferase activity below 0.1); binding [6]: no binding (tested: relative luciferase activity below 0.1)
